Assay results reported in patent US20160159879A1 (UNIVERSITY OF NORTH CAROLINA AT CHAPEL HILL, published 2016).
These are yes or no findings as the source states them, for the method shown. In cells and extracts the contact can be indirect. Some binding calls cover weakened binding; strength is not graded here. Tags and fused reporters may be left off the sequences shown.

By UniProt entry, the sequences of proteins in these tests, tags left out. Where a name states a change or a piece, a line headed by the entry shows the natural chain unless it says otherwise.
UniProt P37089: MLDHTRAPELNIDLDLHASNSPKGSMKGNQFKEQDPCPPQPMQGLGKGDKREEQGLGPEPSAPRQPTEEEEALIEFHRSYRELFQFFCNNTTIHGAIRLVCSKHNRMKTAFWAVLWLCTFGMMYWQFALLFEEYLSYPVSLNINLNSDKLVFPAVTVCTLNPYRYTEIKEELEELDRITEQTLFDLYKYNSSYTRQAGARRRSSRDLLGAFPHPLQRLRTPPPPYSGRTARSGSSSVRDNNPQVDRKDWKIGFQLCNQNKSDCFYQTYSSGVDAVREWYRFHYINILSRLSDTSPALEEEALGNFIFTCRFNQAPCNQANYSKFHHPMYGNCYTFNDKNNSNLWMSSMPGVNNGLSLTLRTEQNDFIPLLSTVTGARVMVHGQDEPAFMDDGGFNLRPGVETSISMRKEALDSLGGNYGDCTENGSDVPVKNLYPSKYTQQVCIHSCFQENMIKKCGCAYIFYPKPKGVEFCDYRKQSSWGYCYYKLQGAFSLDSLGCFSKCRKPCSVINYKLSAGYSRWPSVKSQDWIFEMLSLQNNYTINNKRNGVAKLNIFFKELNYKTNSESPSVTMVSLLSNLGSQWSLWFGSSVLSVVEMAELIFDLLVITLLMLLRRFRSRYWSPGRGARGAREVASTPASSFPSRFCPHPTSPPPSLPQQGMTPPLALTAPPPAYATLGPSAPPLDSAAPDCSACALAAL
UniProt P37090: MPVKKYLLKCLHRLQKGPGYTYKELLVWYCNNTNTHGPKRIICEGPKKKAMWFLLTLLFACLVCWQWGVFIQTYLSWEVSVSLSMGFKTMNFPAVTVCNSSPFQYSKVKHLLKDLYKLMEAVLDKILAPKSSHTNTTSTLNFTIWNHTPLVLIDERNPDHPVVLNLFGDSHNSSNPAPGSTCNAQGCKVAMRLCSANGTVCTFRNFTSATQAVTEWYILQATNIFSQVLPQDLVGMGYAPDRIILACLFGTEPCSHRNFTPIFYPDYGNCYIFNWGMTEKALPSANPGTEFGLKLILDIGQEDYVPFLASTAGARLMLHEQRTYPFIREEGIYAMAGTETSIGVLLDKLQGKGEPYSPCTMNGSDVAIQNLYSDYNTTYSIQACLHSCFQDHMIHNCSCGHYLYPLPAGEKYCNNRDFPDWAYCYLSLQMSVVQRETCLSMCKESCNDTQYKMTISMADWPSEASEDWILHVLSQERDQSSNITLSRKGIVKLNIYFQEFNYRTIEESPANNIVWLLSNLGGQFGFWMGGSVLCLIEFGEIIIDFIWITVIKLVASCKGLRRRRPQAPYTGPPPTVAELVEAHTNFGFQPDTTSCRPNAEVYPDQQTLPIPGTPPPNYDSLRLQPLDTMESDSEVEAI
UniProt P37091: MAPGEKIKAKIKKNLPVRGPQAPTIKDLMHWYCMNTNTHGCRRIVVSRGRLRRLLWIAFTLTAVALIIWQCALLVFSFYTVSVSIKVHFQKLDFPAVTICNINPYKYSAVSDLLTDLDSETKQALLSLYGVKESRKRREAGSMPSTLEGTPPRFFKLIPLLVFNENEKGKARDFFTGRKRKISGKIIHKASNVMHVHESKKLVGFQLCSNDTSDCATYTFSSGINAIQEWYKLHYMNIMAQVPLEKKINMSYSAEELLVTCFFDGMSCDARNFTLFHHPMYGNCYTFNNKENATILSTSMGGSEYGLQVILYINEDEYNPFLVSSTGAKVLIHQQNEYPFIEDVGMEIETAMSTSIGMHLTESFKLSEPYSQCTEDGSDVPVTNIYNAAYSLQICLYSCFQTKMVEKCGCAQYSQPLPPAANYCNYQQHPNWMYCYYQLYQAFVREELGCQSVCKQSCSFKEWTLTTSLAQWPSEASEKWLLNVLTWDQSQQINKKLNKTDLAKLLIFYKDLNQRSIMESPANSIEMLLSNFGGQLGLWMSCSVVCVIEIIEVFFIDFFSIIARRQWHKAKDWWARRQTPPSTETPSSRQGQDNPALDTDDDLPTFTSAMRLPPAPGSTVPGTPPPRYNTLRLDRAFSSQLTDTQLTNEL

Biological target: αβγENaC expressed in Xenopus laevis oocytes (rat) (UniProt P37089+P37090+P37091)
Test: co-immunoprecipitation from oocyte lysates, anti-HA pull-down, anti-V5 blot

B1: V5-tagged SPLUNC1 expressed in Xenopus oocytes from injected cRNA (other, not shown: small tags and cut ends)
chain: QFGGLPVPLDQTLPLNVNPALPLSPTGLAGSLTNALSNGLLSGGLLGILENLPLLDILKPGGGTSGGLLGGLLGKVTSVIPGLNNIIDIKVTDPQLLELGLVQSPDGHRLYVTIPLGIKLQVNTPLVGASLLRLAVKLDITAEILAVRDKQERIHLVLGDCTHSPGSLQISLLDGLGPLPIQGLLDSLTGILNKVLPELVQGNVCPLVNEVLRGLDITLVHDIVNMLIHGLQFVIKV
binding: binds
